Measured data: PubChem BioAssay AID652259 (Drosophila RNAi Screening Center, 2013)
The screen tested about 22,000 reagents; this is an unselected part of those with a known target gene and a result. Over the whole deposit, 233 (1.1%) were called active. 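Light values are raw, unnormalised plate reads; the ratio scores behind the reporter calls were not deposited.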 Not stated in the record: the amount of reagent, the time to read-out, the dose of the treatment.

Purpose: 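Identify new Wingless signalling regulators in fly cells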 (primary screen)
System: Drosophila clone 8 imaginal disc epithelial cells
Reagent: long dsRNA against Drosophila genes
Treatment: pathway stimulated by co-transfected Wingless expression plasmid
Measured: 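Firefly luciferase from a tcf-site Wingless reporter, measured alongside co-transfected Renilla luciferase that tracks transfection; pathway stimulated by a Wingless plasmid; the firefly-to-Renilla ratio is not deposited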
Direction: firefly reporter light: higher = more Wg reporter light, before normalisation; Renilla control light: higher = more transfected or surviving cells
Call rule: 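Strong candidates differ from their plate mean by at least two out of four per-plate statistical tests; weak candidates meet just one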
Meaning of the calls: active = candidate regulator (raises or lowers reporter); inactive = not a candidate

Twdlbeta [DRSC07310] — firefly reporter light, replicate 1 = 5849; Renilla control light, replicate 1 = 2112; outcome = inactive
CG15824 [DRSC00473] — firefly reporter light, replicate 1 = 3507; firefly reporter light, replicate 2 = 11307; Renilla control light, replicate 1 = 1811; Renilla control light, replicate 2 = 3858; outcome = inactive
ACXA [DRSC00844] — firefly reporter light, replicate 1 = 2488; firefly reporter light, replicate 2 = 8298; Renilla control light, replicate 1 = 1334; Renilla control light, replicate 2 = 4486; outcome = inactive
CG7548 [DRSC10874] — firefly reporter light, replicate 1 = 1609; firefly reporter light, replicate 2 = 8039; Renilla control light, replicate 1 = 1257; Renilla control light, replicate 2 = 3549; outcome = inactive
CG7702 [DRSC16293] — firefly reporter light, replicate 1 = 2528; firefly reporter light, replicate 2 = 6311; Renilla control light, replicate 1 = 673; Renilla control light, replicate 2 = 1756; outcome = inactive
CDK2AP1 [DRSC19800] — firefly reporter light, replicate 1 = 4278; firefly reporter light, replicate 2 = 9200; Renilla control light, replicate 1 = 1360; Renilla control light, replicate 2 = 3453; outcome = inactive
Nha2 [DRSC14689] — firefly reporter light, replicate 1 = 17824; Renilla control light, replicate 1 = 14210; outcome = inactive
Nha2 [DRSC15619] — firefly reporter light, replicate 1 = 2212; firefly reporter light, replicate 2 = 4480; Renilla control light, replicate 1 = 946; Renilla control light, replicate 2 = 922; outcome = inactive
Nha2 [DRSC15623] — firefly reporter light, replicate 1 = 22896; Renilla control light, replicate 1 = 21596; outcome = inactive
CG15576 [DRSC18064] — firefly reporter light, replicate 1 = 19500; Renilla control light, replicate 1 = 8918; outcome = inactive
vib [DRSC17094] — firefly reporter light, replicate 1 = 4733; firefly reporter light, replicate 2 = 6388; Renilla control light, replicate 1 = 1833; Renilla control light, replicate 2 = 2858; outcome = inactive
CG42588 [DRSC09820] — firefly reporter light, replicate 1 = 6940; Renilla control light, replicate 1 = 3275; outcome = inactive
CG42588 [DRSC22121] — firefly reporter light, replicate 1 = 8.08e5; firefly reporter light, replicate 2 = 8.28e5; Renilla control light, replicate 1 = 3.56e5; Renilla control light, replicate 2 = 4.34e5; outcome = inactive

A few values from the list:
Under “firefly reporter light, replicate 2”, CG7702 [DRSC16293] is entered as 6311
CG15824 [DRSC00473], firefly reporter light, replicate 1 = 3507
